This experiment concerns L1210 leukemia ip in BDF1 mice, survival T/C. The experiment is described as follows: NCI In Vivo Anticancer Drug Screen. Data for tumor model L1210 Leukemia (intraperitoneal) in B6D2F1 (BDF1) mice. To be noted: higher T/C = longer survival.
Setting [1] is: T/C endpoint: mean survival time, dose: 200.0 mg/kg/injection, schedule: Q01DX001 (ip), vehicle: saline with Tween-80.

The list shows only some results of the screen, not a fair sample: it is rich in T/C values a quarter to a half above the control, in often repeated tests (any T/C) and in doses without a T/C. Further doses and runs are listed elsewhere. T/C: endpoint of the treated group in % of that of the vehicle group. Some entries give survivors of the animals treated and no T/C: the source files T/C as zero there, which appears to mark a toxic dose or a test without result, not a measured value. Some doses without a T/C left all or most animals alive at the check, yet need not have been tolerated: survival well below the control is almost never listed, so the zero probably covers shortened survival too. Counts of survivors are from the toxicity check (mostly the fifth day) where no day follows; animals may have died later. Schedule codes are those of the source, taken here to give the interval after Q, in days (D) or hours (H), and the number of doses after X. Some entries were tested several times; the values are given in rising order. For survival time, the PubChem record calls one and a half times the control and up active, and a quarter to a half above the control has no call in these data; cut-offs in other NCI protocols can differ. Additions like (4×) give the number of equal values in this list. Some schedules carry Z or #; the key to these is not given. Some T/C values are followed by the survivors on the day toxicity was checked, most often the fifth; where none is given, no animal had died by that day.

In the case of `CC1CCC(NC(=O)N(CCCl)N=O)CC1` (centres undefined), the T/C by setting is: (T/C endpoint: mean survival time, dose: 1.7 mg/kg/injection, schedule: Q01DX009 (ip), vehicle: saline with Tween-80) 126 and 128 % of control; (T/C endpoint: mean survival time, dose: 2.5 mg/kg/injection, schedule: Q01DX Z (ip), vehicle: Klucel (hydroxypropylcellulose) (HPC)) 135 % of control [5 of 6 alive]; (T/C endpoint: mean survival time, dose: 3.3 mg/kg/injection, schedule: Q01DX009 (ip), vehicle: saline with Tween-80) 145, 153, 155, 158 % of control; (T/C endpoint: mean survival time, dose: 4.0 mg/kg/injection, schedule: Q01DX001 (ip), vehicle: other) 132 % of control; (T/C endpoint: mean survival time, dose: 4.4 mg/kg/injection, schedule: Q04DX004 (ip), vehicle: saline with Tween-80) 130 % of control; (T/C endpoint: mean survival time, dose: 5.0 mg/kg/injection, schedule: Q01DX Z (ip), vehicle: Klucel (hydroxypropylcellulose) (HPC)) 133 % of control. Further, the T/C reads like this: (T/C endpoint: mean survival time, dose: 6.25 mg/kg/injection, schedule: Q01DX001 (ip), vehicle: other) 128 % of control; (T/C endpoint: mean survival time, dose: 6.5 mg/kg/injection, schedule: Q01DX009 (ip), vehicle: saline with Tween-80) 185, 228, 229, 252 % of control; (T/C endpoint: mean survival time, dose: 8.0 mg/kg/injection, schedule: Q04DX002 (ip), vehicle: saline with Tween-80) 131, 137, 138 % of control (2×); (T/C endpoint: mean survival time, dose: 10.0 mg/kg/injection, schedule: Q01DX001 (iv), vehicle: Klucel (hydroxypropylcellulose) (HPC)) 138 % of control; (T/C endpoint: mean survival time, dose: 10.0 mg/kg/injection, schedule: Q01DX001 (iv), vehicle: saline) 142 % of control; (T/C endpoint: mean survival time, dose: 13.0 mg/kg/injection, schedule: Q01DX009 (ip), vehicle: saline with Tween-80) 173, 297, 306, 313 % of control. Besides, the T/C is 142 % of control (T/C endpoint: mean survival time, dose: 16.0 mg/kg/injection, schedule: Q01DX001 (ip), vehicle: saline with Tween-80, evaluated on day 5); 142 % of control (T/C endpoint: mean survival time, dose: 16.0 mg/kg/injection, schedule: Q01DX001 (ip), vehicle: saline with Tween-80, evaluated on day 60); 166, 196, 202, 213 % of control (T/C endpoint: mean survival time, dose: 16.0 mg/kg/injection, schedule: Q04DX002 (ip), vehicle: saline with Tween-80); 125 % of control (T/C endpoint: mean survival time, dose: 20.0 mg/kg/injection, schedule: Q01DX Z (ip), vehicle: Klucel (hydroxypropylcellulose) (HPC)); 127 % of control (T/C endpoint: mean survival time, dose: 25.0 mg/kg/injection, schedule: Q01DX001 (ip), vehicle: saline with Tween-80); 238, 295, 310, 313 % of control (T/C endpoint: mean survival time, dose: 32.0 mg/kg/injection, schedule: Q04DX002 (ip), vehicle: saline with Tween-80). For the same molecule, the T/C runs as follows: (T/C endpoint: mean survival time, dose: 36.0 mg/kg/injection, schedule: Q01DX001 (ip), vehicle: other, evaluated on day 60) 652, 676, 730 % of control; (T/C endpoint: mean survival time, dose: 36.0 mg/kg/injection, schedule: Q01DX001 (ip), vehicle: other, run until all animals had died) 271 % of control; (T/C endpoint: mean survival time, dose: 50.0 mg/kg/injection, schedule: Q01DX001 (ip), vehicle: saline with Tween-80, evaluated on day 5) 92 % of control; (T/C endpoint: mean survival time, dose: 50.0 mg/kg/injection, schedule: Q01DX001 (ip), vehicle: saline with Tween-80, evaluated on day 30) 131, 294, 308, 329 % of control; (T/C endpoint: mean survival time, dose: 50.0 mg/kg/injection, schedule: Q01DX001 (ip), vehicle: saline with Tween-80, evaluated on day 60) 92 % of control; (T/C endpoint: mean survival time, dose: 54.0 mg/kg/injection, schedule: Q01DX001 (ip), vehicle: other, evaluated on day 60) 602, 689, 701 % of control. Moreover, the T/C is, setting by setting: (T/C endpoint: mean survival time, dose: 54.0 mg/kg/injection, schedule: Q01DX001 (ip), vehicle: other, run until all animals had died) 241 % of control; (T/C endpoint: mean survival time, dose: 100.0 mg/kg/injection, schedule: Q01DX001 (ip), vehicle: saline with Tween-80, evaluated on day 5) 72 % of control; (T/C endpoint: mean survival time, dose: 100.0 mg/kg/injection, schedule: Q01DX001 (ip), vehicle: saline with Tween-80, evaluated on day 30) 130, 137, 139, 142 % of control; under setting [1], 90, 102, 110 % of control; (T/C endpoint: median survival time, dose: 3.75 mg/kg/injection, schedule: Q01DX009 (ip), vehicle: saline) 148 % of control [7 of 8 alive]; (T/C endpoint: median survival time, dose: 25.0 mg/kg/injection, schedule: Q01DX001 (ip), vehicle: saline with Tween-80, evaluated on day 7) 131 % of control. Besides, the T/C was 131 % of control (T/C endpoint: median survival time, dose: 25.0 mg/kg/injection, schedule: Q01DX001 (ip), vehicle: saline with Tween-80, evaluated on day 50); 137 % of control (T/C endpoint: median survival time, dose: 50.0 mg/kg/injection, schedule: Q01DX001 (ip), vehicle: saline with Tween-80, evaluated on day 7); 137 % of control [7 of 8 alive] (T/C endpoint: median survival time, dose: 50.0 mg/kg/injection, schedule: Q01DX001 (ip), vehicle: saline with Tween-80, evaluated on day 50); 137 % of control (T/C endpoint: median survival time, dose: 200.0 mg/kg/injection, schedule: Q01DX001 (ip), vehicle: saline with Tween-80, evaluated on day 7); 137 % of control (T/C endpoint: median survival time, dose: 200.0 mg/kg/injection, schedule: Q01DX001 (ip), vehicle: saline with Tween-80, evaluated on day 50). The survivor count by setting is: (T/C endpoint: mean survival time, dose: 10.0 mg/kg/injection, schedule: Q01DX001 (ip), vehicle: saline) 10 of 10; (T/C endpoint: mean survival time, dose: 33.0 mg/kg/injection, schedule: Q01DX001 (ip), vehicle: clinical formulation) 4 of 6; (T/C endpoint: mean survival time, dose: 33.0 mg/kg/injection, schedule: Q01DX001 (iv), vehicle: clinical formulation) 3 of 6; (T/C endpoint: mean survival time, dose: 40.0 mg/kg/injection, schedule: Q01DX001 (ip), vehicle: saline) 10 of 10; (T/C endpoint: mean survival time, dose: 75.0 mg/kg/injection, schedule: Q01DX001 (ip), vehicle: clinical formulation) 0 of 6; (T/C endpoint: mean survival time, dose: 100.0 mg/kg/injection, schedule: Q01DX001 (ip), vehicle: saline with Tween-80) 10 of 10. Also, the survivor count is 6 of 6 (T/C endpoint: mean survival time, dose: 125.0 mg/kg/injection, schedule: Q01DX001 (ip), vehicle: other); 10 of 10 under setting [1]; 4 of 6 (T/C endpoint: mean survival time, dose: 250.0 mg/kg/injection, schedule: Q01DX001 (ip), vehicle: other); 9 of 10 (T/C endpoint: mean survival time, dose: 400.0 mg/kg/injection, schedule: Q01DX001 (ip), vehicle: saline with Tween-80); 0 of 6 (T/C endpoint: mean survival time, dose: 500.0 mg/kg/injection, schedule: Q01DX001 (ip), vehicle: other); 0 of 6 (T/C endpoint: mean survival time, dose: 750.0 mg/kg/injection, schedule: Q01DX001 (ip), vehicle: other). For the same molecule, the survivor count is 0 of 6 (T/C endpoint: mean survival time, dose: 1000.0 mg/kg/injection, schedule: Q01DX001 (ip), vehicle: other) and 8 of 8 (T/C endpoint: median survival time, dose: 30.0 mg/kg/injection, schedule: Q01DX009 (ip), vehicle: saline).

In the case of `FC(F)(F)c1cccc([PH+](c2cccc(C(F)(F)F)c2)c2cccc(C(F)(F)F)c2)c1.FC(F)(F)c1cccc([PH+](c2cccc(C(F)(F)F)c2)c2cccc(C(F)(F)F)c2)c1.[Cl][Hg][Cl]`, the survivor count is, setting by setting: (T/C endpoint: mean survival time, dose: 50.0 mg/kg/injection, schedule: Q01DX009 (ip), vehicle: Klucel (hydroxypropylcellulose) (HPC)) 2 of 6; (T/C endpoint: mean survival time, dose: 100.0 mg/kg/injection, schedule: Q01DX009 (ip), vehicle: Klucel (hydroxypropylcellulose) (HPC)) 3 of 3; (T/C endpoint: mean survival time, dose: 200.0 mg/kg/injection, schedule: Q01DX009 (ip), vehicle: Klucel (hydroxypropylcellulose) (HPC)) 0 of 3.

As for `C1=C(c2ccccc2)[P+](c2ccccc2)(c2ccccc2)C=C(c2ccccc2)[P+]1(c1ccccc1)c1ccccc1`, the survivor count (T/C endpoint: mean survival time, dose: 50.0 mg/kg/injection, schedule: Q01DX009 (ip), vehicle: saline) is recorded as 3 of 6; the survivor count (T/C endpoint: mean survival time, dose: 100.0 mg/kg/injection, schedule: Q04DX003 (ip), vehicle: saline) was 0 of 6; the survivor count (T/C endpoint: mean survival time, dose: 200.0 mg/kg/injection, schedule: Q04DX003 (ip), vehicle: saline) is listed as 0 of 6; the survivor count (T/C endpoint: mean survival time, dose: 400.0 mg/kg/injection, schedule: Q04DX003 (ip), vehicle: saline) is 0 of 6.

On to `CCOC1c2cnc(C)n2C=CN1C(C)=O` (centres undefined), for which the survivor count by setting is: (T/C endpoint: mean survival time, dose: 200.0 mg/kg/injection, schedule: Q01DX009 (ip), vehicle: water) 4 of 6; (T/C endpoint: mean survival time, dose: 400.0 mg/kg/injection, schedule: Q04DX003 (ip), vehicle: water) 1 of 6.

Consider `CCOC(=O)OCc1ccco1`, for which, under “T/C endpoint: mean survival time, dose: 400.0 mg/kg/injection, schedule: Q01DX009 (ip), vehicle: carboxymethylcellulose (CMC)”, the survivor count is 0 of 3 and 1 of 6.

The values are drawn from PubChem BioAssay AID248 (DTP/NCI, 2004).
